No constants are given. Whether binding was seen depends on the method and setting. In cells and extracts the contact can be indirect. A yes stands for co-enrichment or nearness to the bait. Other partners may have been found.
B1: TNPO2 (protein, UniProt O14787 1-897)
chain: MDWQPDEQGLQQVLQLLKDSQSPNTATQRIVQDKLKQLNQFPDFNNYLIFVLTRLKSEDEPTRSLSGLILKNNVKAHYQSFPPPVADFIKQECLNNIGDASSLIRATIGILITTIASKGELQMWPELLPQLCNLLNSEDYNTCEGAFGALQKICEDSSELLDSDALNRPLNIMIPKFLQFFKHCSPKIRSHAIACVNQFIMDRAQALMDNIDTFIEHLFALAVDDDPEVRKNVCRALVMLLEVRIDRLIPHMHSIIQYMLQRTQDHDENVALEACEFWLTLAEQPICKEVLASHLVQLIPILVNGMKYSEIDIILLKGDVEEDEAVPDSEQDIKPRFHKSRTVTLPHEAERPDGSEDAEDDDDDDALSDWNLRKCSAAALDVLANVFREELLPHLLPLLKGLLFHPEWVVKESGILVLGAIAEGCMQGMVPYLPELIPHLIQCLSDKKALVRSIACWTLSRYAHWVVSQPPDMHLKPLMTELLKRILDGNKRVQEAACSAFATLEEEACTELVPYLSYILDTLVFAFGKYQHKNLLILYDAIGTLADSVGHHLNQPEYIQKLMPPLIQKWNELKDEDKDLFPLLECLSSVATALQSGFLPYCEPVYQRCVTLVQKTLAQAMMYTQHPEQYEAPDKDFMIVALDLLSGLAEGLGGHVEQLVARSNIMTLLFQCMQDSMPEVRQSSFALLGDLTKACFIHVKPCIAEFMPILGTNLNPEFISVCNNATWAIGEICMQMGAEMQPYVQMVLNNLVEIINRPNTPKTLLENTGRLTSPSAIPAITIGRLGYVCPQEVAPMLQQFIRPWCTSLRNIRDNEEKDSAFRGICMMIGVNPGGVVQDFIFFCDAVASWVSPKDDLRDMFYKILHGFKDQVGEDNWQQFSEQFPPLLKERLAAFYGV

Protein sequences, listed by entry. Tags and fused reporters are not part of them.
UniProt P13412: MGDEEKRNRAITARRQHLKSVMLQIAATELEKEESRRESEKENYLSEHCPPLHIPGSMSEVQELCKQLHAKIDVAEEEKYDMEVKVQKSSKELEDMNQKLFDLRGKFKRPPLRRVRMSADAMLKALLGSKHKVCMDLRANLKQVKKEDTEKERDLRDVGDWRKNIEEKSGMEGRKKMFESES
UniProt Q14974: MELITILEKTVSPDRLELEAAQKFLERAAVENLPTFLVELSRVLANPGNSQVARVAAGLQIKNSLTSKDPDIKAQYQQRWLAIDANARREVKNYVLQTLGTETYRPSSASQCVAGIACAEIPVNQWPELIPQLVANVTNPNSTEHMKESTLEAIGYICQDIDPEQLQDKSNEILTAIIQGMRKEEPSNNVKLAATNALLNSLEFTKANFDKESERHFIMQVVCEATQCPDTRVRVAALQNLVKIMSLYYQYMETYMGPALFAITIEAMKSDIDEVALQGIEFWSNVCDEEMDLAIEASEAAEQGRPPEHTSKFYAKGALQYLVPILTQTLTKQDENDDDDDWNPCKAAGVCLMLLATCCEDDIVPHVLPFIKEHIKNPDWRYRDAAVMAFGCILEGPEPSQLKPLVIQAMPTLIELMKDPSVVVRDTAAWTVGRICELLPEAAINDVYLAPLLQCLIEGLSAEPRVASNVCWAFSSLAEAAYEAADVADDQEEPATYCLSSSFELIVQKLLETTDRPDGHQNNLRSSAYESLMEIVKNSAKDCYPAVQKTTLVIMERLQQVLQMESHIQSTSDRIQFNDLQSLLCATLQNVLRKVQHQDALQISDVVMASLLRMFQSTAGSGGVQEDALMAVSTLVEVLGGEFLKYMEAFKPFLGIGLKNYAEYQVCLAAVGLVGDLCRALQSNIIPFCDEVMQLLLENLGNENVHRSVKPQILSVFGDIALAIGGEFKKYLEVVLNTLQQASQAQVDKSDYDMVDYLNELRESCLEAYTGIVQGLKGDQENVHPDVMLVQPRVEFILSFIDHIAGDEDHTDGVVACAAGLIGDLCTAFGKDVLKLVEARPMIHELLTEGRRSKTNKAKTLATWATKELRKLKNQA
UniProt Q92973: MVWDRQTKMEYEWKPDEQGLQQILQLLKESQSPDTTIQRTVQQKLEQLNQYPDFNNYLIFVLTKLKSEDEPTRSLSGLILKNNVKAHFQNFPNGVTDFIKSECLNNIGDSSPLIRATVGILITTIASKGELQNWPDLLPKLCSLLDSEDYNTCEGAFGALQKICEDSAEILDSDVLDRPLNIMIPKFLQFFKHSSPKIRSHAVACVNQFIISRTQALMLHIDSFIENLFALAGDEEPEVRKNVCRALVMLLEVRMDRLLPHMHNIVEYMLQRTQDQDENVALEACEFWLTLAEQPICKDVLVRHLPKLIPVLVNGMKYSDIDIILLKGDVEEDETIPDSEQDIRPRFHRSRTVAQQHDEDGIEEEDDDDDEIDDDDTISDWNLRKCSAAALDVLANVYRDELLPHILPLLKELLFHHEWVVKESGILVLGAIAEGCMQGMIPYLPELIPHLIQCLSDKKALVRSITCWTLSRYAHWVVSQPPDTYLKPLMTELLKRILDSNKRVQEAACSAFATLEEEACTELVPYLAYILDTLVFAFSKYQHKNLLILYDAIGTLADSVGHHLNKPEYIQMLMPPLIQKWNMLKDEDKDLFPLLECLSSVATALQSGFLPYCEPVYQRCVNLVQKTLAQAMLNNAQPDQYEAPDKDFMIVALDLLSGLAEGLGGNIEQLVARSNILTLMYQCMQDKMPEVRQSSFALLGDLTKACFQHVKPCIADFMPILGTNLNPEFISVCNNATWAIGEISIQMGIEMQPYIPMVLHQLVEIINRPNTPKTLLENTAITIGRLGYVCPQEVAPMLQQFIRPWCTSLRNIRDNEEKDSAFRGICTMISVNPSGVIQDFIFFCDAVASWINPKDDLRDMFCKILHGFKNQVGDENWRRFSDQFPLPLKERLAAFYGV
UniProt O15397: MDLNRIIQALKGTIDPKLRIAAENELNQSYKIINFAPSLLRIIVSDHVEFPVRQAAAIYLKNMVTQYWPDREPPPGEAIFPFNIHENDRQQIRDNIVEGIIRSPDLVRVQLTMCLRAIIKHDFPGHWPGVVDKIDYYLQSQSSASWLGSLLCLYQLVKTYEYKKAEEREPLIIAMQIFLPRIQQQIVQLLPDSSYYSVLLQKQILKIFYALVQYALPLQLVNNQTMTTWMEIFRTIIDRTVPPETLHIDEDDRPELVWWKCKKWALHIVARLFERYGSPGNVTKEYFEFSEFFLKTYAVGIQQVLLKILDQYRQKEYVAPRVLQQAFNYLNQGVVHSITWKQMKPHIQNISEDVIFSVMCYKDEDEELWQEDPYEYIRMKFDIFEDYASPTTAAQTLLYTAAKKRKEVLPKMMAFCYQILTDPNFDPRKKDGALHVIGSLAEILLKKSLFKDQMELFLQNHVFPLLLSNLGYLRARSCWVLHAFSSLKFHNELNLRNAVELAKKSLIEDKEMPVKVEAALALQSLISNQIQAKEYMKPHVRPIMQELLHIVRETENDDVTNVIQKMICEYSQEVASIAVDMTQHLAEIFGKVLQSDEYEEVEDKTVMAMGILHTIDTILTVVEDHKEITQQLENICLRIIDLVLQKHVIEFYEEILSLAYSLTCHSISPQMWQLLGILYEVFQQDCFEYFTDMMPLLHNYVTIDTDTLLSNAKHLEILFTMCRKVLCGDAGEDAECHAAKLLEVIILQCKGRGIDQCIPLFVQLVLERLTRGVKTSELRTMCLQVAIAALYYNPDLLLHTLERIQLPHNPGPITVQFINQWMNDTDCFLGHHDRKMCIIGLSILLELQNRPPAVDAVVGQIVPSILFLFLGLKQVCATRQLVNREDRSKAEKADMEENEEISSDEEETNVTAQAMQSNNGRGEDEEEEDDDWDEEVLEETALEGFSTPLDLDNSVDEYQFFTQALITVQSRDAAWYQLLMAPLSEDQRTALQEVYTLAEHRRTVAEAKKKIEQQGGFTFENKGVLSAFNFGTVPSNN
UniProt O00410: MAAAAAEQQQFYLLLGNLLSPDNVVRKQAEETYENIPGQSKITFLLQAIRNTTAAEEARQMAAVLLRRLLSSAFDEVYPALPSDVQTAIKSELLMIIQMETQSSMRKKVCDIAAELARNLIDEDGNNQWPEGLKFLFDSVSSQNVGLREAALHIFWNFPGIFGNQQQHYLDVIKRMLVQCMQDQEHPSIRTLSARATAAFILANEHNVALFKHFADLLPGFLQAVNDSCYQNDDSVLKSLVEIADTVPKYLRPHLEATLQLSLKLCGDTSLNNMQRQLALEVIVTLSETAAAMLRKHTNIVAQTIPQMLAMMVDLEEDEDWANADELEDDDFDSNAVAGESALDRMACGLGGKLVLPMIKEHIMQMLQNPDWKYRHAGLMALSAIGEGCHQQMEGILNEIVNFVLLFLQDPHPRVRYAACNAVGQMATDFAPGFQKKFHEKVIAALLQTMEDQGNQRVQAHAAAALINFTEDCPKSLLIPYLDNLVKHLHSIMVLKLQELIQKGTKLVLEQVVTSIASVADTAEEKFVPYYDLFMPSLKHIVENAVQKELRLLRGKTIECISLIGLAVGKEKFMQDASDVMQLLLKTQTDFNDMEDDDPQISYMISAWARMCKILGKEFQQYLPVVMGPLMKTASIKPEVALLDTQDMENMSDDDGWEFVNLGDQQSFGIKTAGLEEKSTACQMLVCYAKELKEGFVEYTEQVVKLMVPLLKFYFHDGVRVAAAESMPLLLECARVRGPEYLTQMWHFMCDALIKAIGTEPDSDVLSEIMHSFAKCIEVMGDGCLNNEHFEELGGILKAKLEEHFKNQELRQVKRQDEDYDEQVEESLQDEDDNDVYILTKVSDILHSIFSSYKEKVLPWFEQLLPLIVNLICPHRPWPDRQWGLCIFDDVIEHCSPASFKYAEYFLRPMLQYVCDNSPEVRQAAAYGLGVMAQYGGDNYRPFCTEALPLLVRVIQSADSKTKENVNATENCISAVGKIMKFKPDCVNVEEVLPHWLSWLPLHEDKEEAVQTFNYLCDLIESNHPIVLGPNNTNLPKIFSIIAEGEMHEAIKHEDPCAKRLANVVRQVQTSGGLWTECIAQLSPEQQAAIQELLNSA

Target: wild-type tnni2-GFP fusion protein (troponin I type 2, skeletal, fast) (UniProt P13412)
Experiment: affinity purification with mass spectrometry; 20 mg nuclear extract of 293T tnni2 wild-type-GFP stable cells incubated with agarose beads coupled with an anti-GFP antibody, 4°C, 4 hours; washed three times with buffer C (10 mM HEPES pH 7.9, 500 mM NaCl, 0.1 mM EDTA, 0.1 mM EGTA, 0.1% NP40, 10% glycerol); IP products analysed by mass spectrometry

Row | binding | Molecule
1 | binds | KPNB1 (from UniProt Q14974 1-876)
2 | binds | TNPO1 (from UniProt Q92973 1-898)
3 | binds | IPO8 (from UniProt O15397 1-1037)
4 | binds | IPO5 (from UniProt O00410 1-1097)
5 | binds | B1

Reference: PMC4207604
